To fix the notation:
B1: il10ra_site1_normal_mot_HHH_b1_02809_af2_000000277_0001_40_57_H_._HHH_b1_07120_0001_0000300026_0000001_1 (protein)
chain: SSSSSEAERSVRILIEAAERLEELGDPEKARLTLRFAVALAKAANNPELLEEARELLEKLKSSSS
B2: il10ra_site1_normal_mot_HHH_b1_07503_000000138_0001_1_18_H_._HHH_b1_01429_0001_0000200008_0000001_0 (protein)
chain: SSSSNYEEAIENAARQAFETIEKLGNPEAEQYLETLLEAARILGDEELEELIEQLLRELRSSSSS
B3: il10ra_site1_sap_26_mot_HHH_b1_03531_000000273_0001_41_54_H_._9f5b7fc4e9d6b3037bff8dd1fb84ce76_0001_0001_0000300016_0000001_0_0001 (protein)
chain: SSSSSTEEAYRLSREAVELASEGDPEEAEKVAEEALEIAEEEGNRVVAVVIRYVLEVIRNSSSSS
B4: il10ra_site1_sap_20_mot_HHH_b2_05540_000000178_0001_1_18_H_._HHH_b2_06309_0001_0000100008_0000001_0_0001 (protein)
chain: SSSSSDEVEEEVEELLEEARQIEDKEKALRLVLEALRFAIQNQNKELLRLVWKVVHEVAQSSSSS
B5: il10ra_site1_normal_mot_HHH_b1_07641_af2_000000285_0001_1_21_H_._HHH_b1_01682_af2_0001_0000200014_0000002_0_af2pred_0001 (protein)
chain: SSSSSEEVIELIREAAQLLREGDKEEAREVAKEALELAEELGNVIARVNIELLIRDIEDLSSSSS
B6: il10ra_site1_sap_20_mot_HHH_b2_03163_000000105_0001_1_19_H_._HHH_b2_03057_af2_0001_0000200008_0000001_0_0001_af2pred_0001 (protein)
chain: SSSSSEDRELARLSLRAARWLAKANDEEAIRIAFHFVKLLLELTNDEEVRELLEEIEELLSSSSS
B7: il10ra_site1_sap_14_mot_HHH_b2_00952_af2_000000228_0001_1_18_H_._HHH_b1_02318_0002_0000300043_0000001_0_0001 (protein)
chain: SSSSDEAYEVAKKAIERVIELYRRGNEEEAKELLEEALREVEELNNWAALWSLRHLLRVLKSSSS
B8: il10ra_site1_normal_mot_8756ee2cf497b5429c717dfc0c0bcfd6_0001_000000186_0001_1_13_H_._HHH_b2_06757_0001_0000400009_0000001_0_af2pred_0001 (protein)
chain: SSSSSSQEVLQELRRLLEEALRIEDEEEAKEVLEEARELAEENNNLIFLAILEFLLKRLSSSSSS
B9: il10ra_site1_sap_13_mot_HHH_b2_00800_af2_000000047_0001_1_20_H_._HHH_b2_07878_af2_0001_0000500019_0000002_0_0001_af2pred_0001 (protein)
chain: SSSSTQAEALFRLARESVEYALEQGNEELARRSLKLRIFSLEELGDEELAKELHELLREISSSSS
B10: il10ra_site1_normal_mot_HHH_b1_03031_af2_000000117_0001_17_33_H_._HHH_b1_04005_af2_0001_0000700014_0000002_0 (protein)
chain: SSSSSDEEERRRAAELYFRAARLGDEELAVRLIQLLARYLQEGDPRYVEEMEELVEEVEKSSSSS
B11: il10ra_site1_normal_mot_HHH_b2_02463_af2_000000222_0001_1_19_H_._HHH_b1_06264_af2_0001_0000100001_0000001_0_af2pred_0001 (protein)
chain: SSSSDEEEREELKERIEEAIEKNDPELLLKLAIEAAQLALQLEDRELTELVLEAAELLRRLSSSS
B12: il10ra_site1_normal_mot_HHH_b2_00475_000000002_0001_44_57_H_._HHH_b1_00702_af2_0001_0000600012_0000002_0_af2pred_0001 (protein)
chain: SSSSNEEAVELALRALEIAYELGDKEKFEAAYRLAEREIKRLGDEELERELKELYEELEKSSSSS
B13: il10ra_site1_normal_mot_HHH_b1_01011_000000096_0001_1_19_H_._HHH_b1_07452_0001_0000100012_0000001_0 (protein)
chain: SSSSSEEERYLKLSLRFAEALLENGDPEAARRILEAAEDIARRLGNEELLERAEELLEEARSSSS
B14: il10ra_site1_sap_19_mot_HHH_b2_02022_af2_000000170_0001_1_16_H_._107009d5f73eb0e6f3dc327d02cea2e3_0001_1_af2_0001_0000500018_0000001_0_0001 (protein)
chain: SSSSDAREEALRLAQEAFHLALRGNPEEARELLEEAEKLAEEINDERLLEVIRNLLEAVRSSSSS
B15: il10ra_site1_normal_mot_HHH_b2_07579_000000275_0001_1_19_H_._HHH_b1_03645_0001_0000100011_0000001_0_af2pred_0001 (protein)
chain: SSSSSSKAEEVVRLIREAIRLLKEGNPEQAREVLEEALRIAEEAGNPLLEISVRHLLRTISSSSS
B16: il10ra_site1_sap_17_mot_HHH_b1_06583_000000064_0001_43_57_H_._HHH_b2_06223_0001_0000100001_0000001_0_0001 (protein)
chain: SSSSSDELQEALRLSQEAFHAALRGDKEEAERLLEEALELAERGNDERLAEVIRDLLEALSSSSS
B17: il10ra_site1_normal_mot_HHH_b1_06816_000000239_0001_1_19_H_._HHH_b1_08301_0001_0000100003_0000002_0 (protein)
chain: SSSSSDLEEEVEELLEKAEHIEDPDEAFEILREAIELASEANDPELFELIMEVIRKWLNSSSSSS
B18: il10ra_site1_sap_24_mot_HHH_b2_02267_000000141_0001_1_20_H_._HHH_b2_01742_af2_0001_0000300017_0000002_0_0001 (protein)
chain: SSSSDTMEELIKALLRLLRQAIEIGNERSARSLAEAVRLAIERANDEEAEEELKELEKLLKSSSS
B19: il10ra_site1_sap_17_mot_HHH_b2_04006_000000143_0001_42_56_H_._3ff75f044bbd266f07abdfc5542de534_0001_0001_0000400011_0000001_0_0001 (protein)
chain: SSSSDEAYRIAEEAIEEALRLLREGDPEEAHKLLEEALRLLEELGNWVAVWSLRHLLRAEFSSSS

The other results are listed elsewhere or left out.

As usually defined, the apparent Kd is a dissociation constant that holds for the conditions of the assay.

This test deals with il10ra, Q13651. Kind of test: yeast display titration.
With B1, the “apparent Kd” value is “inactive: no binding seen”.

B2: the “apparent Kd” value is “inactive: no binding seen”.

As to B3, the “apparent Kd” value was “inactive: no binding seen”.

For the molecule B4, the “apparent Kd” value is “inactive: no binding seen”.

B5: the “apparent Kd” value is “inactive: no binding seen”.

For B6, the “apparent Kd” value is “inactive: no binding seen”.

In the case of B7, the apparent Kd is inactive: > 583 nM.

In the case of B8, the “apparent Kd” value is “inactive: no binding seen”.

Consider B9, for which the “apparent Kd” value was “inactive: no binding seen”.

For the molecule B10, the “apparent Kd” value was “inactive: no binding seen”.

Take B11: the “apparent Kd” value was “inactive: no binding seen”.

With B12, the “apparent Kd” value is “inactive: no binding seen”.

Consider B13, for which the “apparent Kd” value was “inactive: no binding seen”.

Regarding B14, the apparent Kd is inactive: > 1250 nM.

Consider B15, for which the “apparent Kd” value was “inactive: no binding seen”.

On to B16, for which the “apparent Kd” value was “inactive: no binding seen”.

Turning to B17, the “apparent Kd” value is “inactive: no binding seen”.

In the case of B18, the “apparent Kd” value was “inactive: no binding seen”.

On to B19, for which the “apparent Kd” value is “inactive: no binding seen”.

The values are drawn from PMC10163288.
